This is a selection; strong and weak results do not stand in their true shares. For part of these data: At the low end of the ranking the order means little. Some of the results follow. For part of these data: The source does not settle which construct or isoform was used.

One test deals with T1, GABPA (UniProt Q06546).
T1 sequence: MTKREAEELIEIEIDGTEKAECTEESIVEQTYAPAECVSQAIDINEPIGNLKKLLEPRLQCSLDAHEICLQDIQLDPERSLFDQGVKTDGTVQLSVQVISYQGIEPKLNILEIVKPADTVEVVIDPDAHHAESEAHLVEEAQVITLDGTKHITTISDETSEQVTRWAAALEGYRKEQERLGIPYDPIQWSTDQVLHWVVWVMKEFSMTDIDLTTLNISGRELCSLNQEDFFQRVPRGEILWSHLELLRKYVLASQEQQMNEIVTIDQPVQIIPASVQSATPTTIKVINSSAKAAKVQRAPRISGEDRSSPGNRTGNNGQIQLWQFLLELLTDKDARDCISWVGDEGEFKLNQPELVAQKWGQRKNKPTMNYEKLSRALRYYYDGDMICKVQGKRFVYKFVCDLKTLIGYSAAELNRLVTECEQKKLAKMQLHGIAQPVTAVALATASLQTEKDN
The test can be described thus: DAPPL (digital affinity profiling via proximity ligation, sequencing). As to conditions: 10 mM Tris-HCl pH 7.5, 50 mM NaCl, 1 mM DTT, 4% glycerol, room temperature, 30 min; GST-TFs on glutathione beads, 16-mer random dsDNA library, 0.1% …; high values mean tight binding; double strand, one strand shown; scale: fold enrichment (6-mer frequency, TF over GST control).
In turn, CAGCTG had a binding signal of 0.83.

GGCGAC displayed a binding signal of 0.81.

Regarding CCGAGA, the binding signal turned out to be 0.677.

GGCGTC gave a binding signal of 0.732.

Take GGTTGA: the binding signal is 0.821.

The sequence GTGAGC came in with a binding signal of 0.371.

GTGAGA had a binding signal of 0.323.

On to AAGTCG, for which the binding signal is 0.513.

Sequence GTTGTG had a binding signal of 0.975.

For CGGTTG, the binding signal is 0.722.

Turning to ATCGGA, the binding signal amounted to 0.395.

Take GTCAGA: the binding signal stood at 0.641.

Turning to ACTAGT, the binding signal was 0.928.

As to CCGGGG, the binding signal is 0.791.

With TGAGTG, the binding signal came out at 0.518.

GGTTCG registered a binding signal of 0.839.

Sequence GGGTCA returned a binding signal of 0.619.

In turn, GACCAT returned a binding signal of 0.846.

GACTGA yielded a binding signal of 0.811.

For AGAGCC, the binding signal stood at 0.751.

Turning to CGGGCA, the binding signal was determined as 0.687.

GCAAGT: the binding signal came to 0.878.

Turning to GAGTCA, the binding signal turned out to be 0.287.

In turn, GAGCCG displayed a binding signal of 0.391.

With AAGAGA, the binding signal came out at 0.898.

In the case of TGAGAA, the binding signal came to 0.731.

For the sequence GCAGGA, the binding signal is 0.76.

Sequence GGGTTG displayed a binding signal of 0.836.

Sequence CAGGTC had a binding signal of 0.725.

On to GAGGGC, for which the binding signal turned out to be 0.644.

In turn, GAGCCT had a binding signal of 0.877.

Regarding CGTCGG, the binding signal was determined as 0.436.

For GGGGTC, the binding signal is 0.671.

Consider AGTCAG, for which the binding signal is 0.482.

Consider TCCGTG, for which the binding signal turned out to be 0.521.

As to CGGCGA, the binding signal came out at 0.766.

Take CGTGTT: the binding signal is 0.774.

GAGTGA: the binding signal was 0.413.

With GAGGGT, the binding signal worked out at 0.554.

A further test deals with T2, ETS1 (UniProt P14921).
T2 sequence: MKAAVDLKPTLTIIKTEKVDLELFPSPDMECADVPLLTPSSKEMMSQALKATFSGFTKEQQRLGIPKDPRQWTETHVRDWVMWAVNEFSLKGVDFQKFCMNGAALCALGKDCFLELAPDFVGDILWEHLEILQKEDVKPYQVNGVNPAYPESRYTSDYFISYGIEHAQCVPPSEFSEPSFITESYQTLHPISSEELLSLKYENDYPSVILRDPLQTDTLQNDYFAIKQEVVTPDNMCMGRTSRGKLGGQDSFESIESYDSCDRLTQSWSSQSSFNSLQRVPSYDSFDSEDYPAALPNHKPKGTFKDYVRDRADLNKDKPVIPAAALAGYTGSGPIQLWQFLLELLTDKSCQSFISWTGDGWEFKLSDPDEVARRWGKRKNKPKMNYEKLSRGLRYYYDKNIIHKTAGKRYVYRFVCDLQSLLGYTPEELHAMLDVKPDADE
The test is described as above. As to conditions: 10 mM Tris-HCl pH 7.5, 50 mM NaCl, 1 mM DTT, 4% glycerol, room temperature, 30 min; GST-TFs on glutathione beads, 16-mer random dsDNA library, 0.1% …; high values mean tight binding; double strand, one strand shown; scale: fold enrichment (6-mer frequency, TF over GST control).
CAGCTG came in with a binding signal of 0.837.

With GGCGAC, the binding signal came out at 0.786.

CCGAGA displayed a binding signal of 0.622.

As for GGCGTC, the binding signal is 0.845.

GGTTGA registered a binding signal of 0.815.

As for GTGAGC, the binding signal came out at 0.411.

Regarding GTGAGA, the binding signal worked out at 0.306.

The sequence AAGTCG registered a binding signal of 0.475.

In turn, GTTGTG had a binding signal of 0.877.

CGGTTG returned a binding signal of 0.692.

Sequence ATCGGA registered a binding signal of 0.422.

In the case of GTCAGA, the binding signal came out at 0.624.

With ACTAGT, the binding signal is 0.87.

Consider CCGGGG, for which the binding signal was determined as 0.72.

For the sequence TGAGTG, the binding signal was 0.417.

On to GGTTCG, for which the binding signal came to 0.778.

The sequence GGGTCA showed a binding signal of 0.723.

The sequence GACCAT showed a binding signal of 0.833.

Sequence GACTGA gave a binding signal of 0.813.

AGAGCC had a binding signal of 0.723.

As for CGGGCA, the binding signal was 0.698.

Turning to GCAAGT, the binding signal came out at 0.785.

Turning to GAGTCA, the binding signal was 0.28.

In the case of GAGCCG, the binding signal turned out to be 0.399.

In turn, AAGAGA gave a binding signal of 0.815.

Sequence TGAGAA showed a binding signal of 0.758.

Sequence GCAGGA returned a binding signal of 0.798.

For GGGTTG, the binding signal was determined as 0.896.

Turning to CAGGTC, the binding signal is 0.731.

Regarding GAGGGC, the binding signal came to 0.623.

In the case of GAGCCT, the binding signal stood at 0.843.

The sequence CGTCGG displayed a binding signal of 0.428.

GGGGTC came in with a binding signal of 0.663.

Take AGTCAG: the binding signal was 0.487.

Sequence TCCGTG registered a binding signal of 0.482.

CGGCGA yielded a binding signal of 0.683.

In turn, CGTGTT had a binding signal of 0.852.

Regarding GAGTGA, the binding signal was 0.419.

GAGGGT displayed a binding signal of 0.547.

Another test has as its target T3, SPDEF (UniProt O95238).
T3 sequence: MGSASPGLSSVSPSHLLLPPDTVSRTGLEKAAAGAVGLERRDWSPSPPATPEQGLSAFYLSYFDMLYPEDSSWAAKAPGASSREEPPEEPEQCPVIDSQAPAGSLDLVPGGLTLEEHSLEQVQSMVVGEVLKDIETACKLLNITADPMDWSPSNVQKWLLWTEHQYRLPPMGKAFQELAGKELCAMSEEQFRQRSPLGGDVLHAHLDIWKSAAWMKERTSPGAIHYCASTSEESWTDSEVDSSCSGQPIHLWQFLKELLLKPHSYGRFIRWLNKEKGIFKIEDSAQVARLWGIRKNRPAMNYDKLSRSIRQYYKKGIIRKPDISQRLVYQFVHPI
The test is described as above. The note with it: 10 mM Tris-HCl pH 7.5, 50 mM NaCl, 1 mM DTT, 4% glycerol, room temperature, 30 min; GST-TFs on glutathione beads, 16-mer random dsDNA library, 0.1% …; high values mean tight binding; double strand, one strand shown; scale: fold enrichment (6-mer frequency, TF over GST control).
In turn, CAGCTG gave a binding signal of 0.724.

In turn, GGCGAC displayed a binding signal of 0.894.

In turn, CCGAGA returned a binding signal of 0.621.

The sequence GGCGTC returned a binding signal of 0.735.

On to GGTTGA, for which the binding signal was 0.807.

Sequence GTGAGC came in with a binding signal of 0.394.

GTGAGA had a binding signal of 0.297.

AAGTCG came in with a binding signal of 0.467.

Take GTTGTG: the binding signal was 0.925.

For the sequence CGGTTG, the binding signal turned out to be 0.907.

As to ATCGGA, the binding signal was 0.435.

As for GTCAGA, the binding signal worked out at 0.584.

The sequence ACTAGT registered a binding signal of 0.845.

On to CCGGGG, for which the binding signal amounted to 0.908.

As for TGAGTG, the binding signal was found to be 0.451.

In turn, GGTTCG came in with a binding signal of 0.844.

GGGTCA returned a binding signal of 0.723.

For the sequence GACCAT, the binding signal was 0.788.

GACTGA registered a binding signal of 0.84.

Take AGAGCC: the binding signal is 0.672.

Sequence CGGGCA came in with a binding signal of 0.727.

In turn, GCAAGT yielded a binding signal of 0.711.

As for GAGTCA, the binding signal stood at 0.28.

GAGCCG registered a binding signal of 0.377.

As to AAGAGA, the binding signal was 0.834.

In the case of TGAGAA, the binding signal turned out to be 0.657.

In the case of GCAGGA, the binding signal turned out to be 0.873.

For GGGTTG, the binding signal amounted to 0.849.

CAGGTC: the binding signal came out at 0.75.

In turn, GAGGGC had a binding signal of 0.613.

Regarding GAGCCT, the binding signal was 0.843.

CGTCGG: the binding signal was determined as 0.384.

In turn, GGGGTC showed a binding signal of 0.639.

Sequence AGTCAG came in with a binding signal of 0.45.

TCCGTG showed a binding signal of 0.627.

In turn, CGGCGA yielded a binding signal of 0.678.

The sequence CGTGTT registered a binding signal of 0.913.

Regarding GAGTGA, the binding signal is 0.387.

GAGGGT: the binding signal turned out to be 0.52.

The values are drawn from publication PMC7862700.
